Results from paper PMC12631912 (Advanced Science, 2025).

Experiment: peptide made by a vendor
Details: whole synthesis

For “cyclic RGDyK, sequence Arg‐Gly‐Asp‐D‐Phe‐Lys”, the “purity (crude or final not stated)” value was 95.71%.
